In PubChem BioAssay AID1487 (National Center for Advancing Translational Sciences (NCATS), 2009):
Several values for one entry are separate records, joined by “and”; a condition that tells them apart may be missing. Equal entries are not always repeated. This is one part of the list. Shown are side measurements of this screen, not its main read-out; they come without a call. Compounds called inactive in the main read-out are mostly missing here. Potencies come from curve fits of mixed quality, noted in brackets.

Experiment: qHTS Assay for Modulators of Lamin A Splicing
Settings: HeLa LMNA splicing GFP/RFP minigene ratio, 48 h
Outline: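 S3 HeLa cells stably expressing lamin A-EGFP splicing minigene plus DsRed2, 600 cells/well, 48 h compound exposure at 37C. Laser-scanning cytometry; analysed as GFP (500-530 nm)/RFP (575-640 nm) total intensity ratio; 0.5% DMSO vehicle.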

[1] = measured here: GFP splicing reporter channel
[2] = measured here: RFP viability control channel

Compound	AC50 [1]	AC50 [2]
CCOc1ccc(NC(=O)C2C3CCC4C(CCC32)C4(Cl)Cl)cc1 (stereo unspecified)	0.0316 µM [falling, full curve, poor fit]	–
CCOc1cc(/C=N\NC(=O)c2ccc(NC(=O)C(C)(C)C)cc2)ccc1OC(=O)c1cccc(C)c1	8.91 µM [rising, partial curve, poor fit]	11.2 µM [rising, single point]
COc1ccc(-c2nc3cnc(OCc4ccccc4)nc3n(CCC#N)c2=O)cc1	25.1 µM [falling, single point]	14.1 µM [falling, single point]
CC1Cc2ccccc2N1C(=O)CSc1nc2ccccc2o1 (stereo unspecified)	6.31 µM [rising, single point]	22.4 µM [rising, single point]
NC(=O)C1CCCN1 (stereo unspecified)	0.0891 µM [falling, full curve]	–
COc1cccc(NC(=O)CN(Cc2ccccc2)S(=O)(=O)c2ccc3nc(C)sc3c2)c1	35.5 µM [falling, single point]	35.5 µM [falling, partial curve, poor fit]
Cc1nnc(SC(C)C(=O)Nc2ccc(S(=O)(=O)NC3CCCCC3)cc2)s1 (stereo unspecified)	–	12.6 µM [rising, partial curve, poor fit]
COc1ccc(/C=C/C(=O)c2cc(Br)ccc(=O)c2O)cc1	–	20 µM [rising, single point]
CN(C)c1ncc2nc(-c3ccc(Cl)cc3)c(=O)n(-c3ccccc3)c2n1	12.6 µM [falling, partial curve]	15.8 µM [falling, partial curve]
COc1ccc(OC)c(-c2nc(C(N)=O)c3c(n2)n(-c2ccc4c(c2)OCO4)c(=O)n3C)c1	20 µM [falling, single point]	20 µM [falling, single point]
CCc1ccc(C2C3=C(CC(C)(C)CC3=O)Nc3c2c(=O)[nH]c2nc(C)nn32)cc1 (stereo unspecified)	–	20 µM [falling, single point]
NC(=O)c1c(NC(=O)Cc2cccs2)sc2c1CCC2	–	11.2 µM [rising, partial curve, poor fit]
CC(Oc1ccc(F)cc1)C(=O)Nc1ccc2ccccc2c1 (stereo unspecified)	–	12.6 µM [rising, partial curve, poor fit]
CC(Sc1ccccc1)C(=O)NN=C1CCCC1 (stereo unspecified)	20 µM [falling, partial curve, poor fit]	15.8 µM [falling, single point]
CCCCc1nn2c(=O)cc(COC(=O)c3cccc(NC(=O)c4cccc(C)c4)c3)nc2s1	0.794 µM [rising, full curve, poor fit]	–
Cn1cc(CNCc2cn[nH]c2-c2ccc(F)cc2)c(-c2ccc3c(c2)OCCO3)n1	1.58 µM [falling, partial curve, poor fit]	0.00891 µM [falling, full curve, poor fit]
N#CCSc1nc(Nc2ccc3c(c2)OCO3)c2ccccc2n1	7.94 µM [rising, partial curve]	10 µM [rising, partial curve, poor fit]
O=C(Cc1ccccc1)N/N=C/c1cccc([N+](=O)[O-])c1	5.01 µM [rising, partial curve, poor fit]	0.891 µM [rising, full curve, poor fit]
COc1ccccc1N1CCN(S(=O)(=O)c2cc(C)sc2C)CC1	25.1 µM [falling, partial curve]	22.4 µM [falling, single point]
Cc1csc(Sc2nc3c(c(=O)[nH]c(=O)n3C)n2CCCc2ccccc2)n1	–	1.78 µM [falling, partial curve, poor fit]
Cc1nc(N2CCN(Cc3ccccc3)CC2)nc2c1C(=O)CCC2	–	10 µM [rising, partial curve, poor fit]
CCCSC1=NC2(CCN(C(=O)NC3CCCCC3)CC2)N=C1c1ccccc1	0.2 µM [falling, full curve]	0.0355 µM [falling, full curve, poor fit]
COc1ccc(OC)c(NC(=O)c2cccc(Cn3cc(Br)c([N+](=O)[O-])n3)c2)c1	20 µM [rising, single point]	–
O=C1C(=O)N(C2CCCC2)C(=O)N1Cc1c(F)cccc1Cl	0.251 µM [rising, full curve]	–
CCOc1cccc(/C=N/NC(=S)Nc2ccccc2[N+](=O)[O-])c1O	10 µM [falling, partial curve]	8.91 µM [falling, partial curve, poor fit]
NC12CC3CC(CC(C3)C1)C2	0.00398 µM [falling, full curve, poor fit]	15.8 µM [rising, single point] and 4.47 nM [falling, full curve, poor fit]
Fc1cccc(Cl)c1CNc1n[nH]c(-c2ccco2)n1	28.2 µM [falling, partial curve]	–

Compound	AC50 [1]	AC50 [2]
CC(C)CCNC(=O)c1ccc(Cn2c(SCC(=O)NC(C)C)nc3ccccc3c2=O)cc1	31.6 µM [falling, single point]	35.5 µM [falling, single point]
O=S(=O)(c1ccccc1)c1ncc(C(F)(F)F)cc1Cl	–	2.82 µM [falling, single point]
COc1ccc(N2CCN(c3nc(NCCc4ccc(OC)c(OC)c4)nc(OC)n3)CC2)cc1	14.1 µM [rising, partial curve]	11.2 µM [rising, partial curve]
Cc1oc2ccc(OCc3ccc(F)cc3)cc2c1C(=O)O	–	20 µM [falling, partial curve]
CC(=O)Nc1ccc(S(=O)(=O)N2CCSC2c2ccccc2Cl)cc1 (stereo unspecified)	–	35.5 µM [rising, single point]
FC(F)(F)c1ccccc1-c1ccc2ncnc(NC3CCNCC3)c2c1	–	31.6 µM [rising, single point]
CCc1ccc(-n2c(SCC(=O)NC(C)CC)nc3n[nH]c(C)c3c2=N)cc1 (stereo unspecified)	–	0.0316 µM [falling, full curve, poor fit]
COc1ccc(F)cc1C(=O)C1CCCN(C(=O)Cc2c(C)noc2C)C1 (stereo unspecified)	–	0.282 µM [falling, full curve]
COc1ccc(S(=O)(=O)N(C)CC(=O)Nc2ccc(C(F)(F)F)cc2)cc1Cl	25.1 µM [rising, single point]	–
O=S1(=O)CCN(Cc2csc(-c3cccs3)n2)CC1	–	1 µM [falling, partial curve, poor fit]
N#C/C(=C\c1ccc(O)c(O)c1)C(=O)c1ccc(O)c(O)c1	15.8 µM [falling, single point]	15.8 µM [rising, single point]
CN(CC(=O)Nc1ccc(Cl)cc1)c1ccc(S(=O)(=O)N2CCCCC2)cc1[N+](=O)[O-]	–	12.6 µM [rising, partial curve]
CCn1c(=N)n(CCOc2ccc(Br)cc2)c2ccccc21	25.1 µM [falling, single point]	–
COc1ccc(COc2ccccc2C(N)=O)cc1F	–	14.1 µM [rising, single point]
Cc1[nH]n(-c2ccc(Cl)cc2)c(=O)c1/C=N/n1c(C)nc2ccccc2c1=O	–	22.4 µM [rising, single point]
CC(C)c1ccc2nc(N)sc2c1	3.16 µM [rising, partial curve, poor fit]	–
Cc1ccc(C(C)C)cc1C(=O)CC1(O)C(=O)N(C)c2ccccc21 (stereo unspecified)	10 µM [rising, partial curve]	12.6 µM [rising, single point]
N#CC1=C(N)C2=CCCC[C@H]2[C@H](c2ccc(Br)cc2)C1(C#N)C#N	–	14.1 µM [rising, partial curve]
O=C1c2ccccc2C(=O)C1C1=Nc2ccccc2NC(c2ccccc2)C1 (stereo unspecified)	–	0.0708 µM [falling, full curve, poor fit]
COc1cccc(/C=C/C(=O)c2ccc(C)c([N+](=O)[O-])c2)c1	35.5 µM [falling, single point]	–
C=Cn1c(C(=O)O)ccc1-c1ccc(OC)cc1	0.0224 µM [rising, partial curve, poor fit]	0.0224 µM [rising, full curve, poor fit]
Oc1ccc(C2=NNC(=NCc3ccc4c(c3)OCO4)SC2)c(O)c1	–	6.31 µM [rising, partial curve]
Cc1c(Cl)cccc1NC(=O)C1CCN(c2ncnc3c2nc2n3CCCCC2)CC1	0.158 µM [falling, full curve]	0.0178 µM [falling, full curve, poor fit]
CCCN(CCC)C(=S)NC(=O)c1ccc(-c2ccccc2)cc1	–	25.1 µM [rising, single point]
NS(=O)(=O)c1ccc2ccccc2c1	5.62 µM [falling, single point]	6.31 µM [falling, single point]
COc1cc(C(=O)N/N=C/c2ccsc2C)cc(OC)c1OC	1.12 µM [falling, full curve]	1 µM [falling, full curve]
CCn1nc(C)c(CCN(C)C(=O)Nc2cc(OC)c(OC)c(OC)c2)c1C	35.5 µM [rising, single point]	–

Complete entries, looked up by structure. Order of values: AC50 [1]	AC50 [2]
`CCCN(CCC)C(=S)NC(=O)c1ccc(-c2ccccc2)cc1` reads –	25.1 µM [rising, single point]
`Cc1oc2ccc(OCc3ccc(F)cc3)cc2c1C(=O)O` reads –	20 µM [falling, partial curve]
`NS(=O)(=O)c1ccc2ccccc2c1` reads 5.62 µM [falling, single point]	6.31 µM [falling, single point]
`COc1cccc(/C=C/C(=O)c2ccc(C)c([N+](=O)[O-])c2)c1` reads 35.5 µM [falling, single point]	–
